± gives the standard deviation of the averaged measurements. The list shows a part of the results. Single values are uncertain, as repeats are few or missing.
What follows are molecules tested on RAW 264.7 macrophages infected with S. aureus JE2-lux (assay: host macrophage viability (CellTiter-Fluor) relative to DMSO vehicle; higher = more viable host cells). Conditions: 10 µM; treatment time 4 h; gentamicin 50 µg/ml.
c1ccc(CNc2nc(-c3ccccc3)no2)cc1 was tested, and the host macrophage viability was 125%.
CC(C)c1ccc(NC(=O)CSc2nncc(=O)[nH]2)cc1 gave a host macrophage viability of 106%.
O=C(CSc1nc2sc3c(c2c(=O)[nH]1)CCCC3)Nc1nccs1 gave a host macrophage viability of 106%.
Work on CCC(Cn1nc2c(C)cc3ccccc3n2c1=O)NC(=O)c1ccco1 (stereo not given) yielded a host macrophage viability of 119%.
Cc1nnc(NC(=O)CSc2c(CC(C)C)cnc3c2c(=O)n(C)c(=O)n3C)s1 gave a host macrophage viability of 127%.
In the case of O=C(NCc1nnnn1-c1ccc(F)cc1)C1CC(=O)N(c2ccc(F)cc2)C1 (stereo not given), the host macrophage viability is reported as 112%.
In the case of O=C(CCC(=O)N1CC(c2ccccc2)Oc2cccnc21)NCc1ccc(Cl)cc1 (stereo not given), the host macrophage viability is reported as 90.7%.
For O=C(NCC1COC2(CCCCC2)O1)c1ccccc1F (stereo not given), the host macrophage viability was 95.4%.
Molecule COc1cc(/C=C/C(=O)C2=C(O)c3ccccc3C2=O)ccc1O has a host macrophage viability of 109%.
COC(=O)c1ccc(CSc2nc(=O)n3ccc(C)cc3n2)o1 showed a host macrophage viability of 101%.
In the case of O=C(O)C1=CC(c2c[nH]nc2-c2ccc(F)cc2)n2ncnc2N1 (stereo not given), the host macrophage viability is reported as 123%.
CCOc1cc(NC(=O)c2cccc(Cl)c2)c(OCC)cc1NC(=O)c1ccc(Cl)cc1 gave a host macrophage viability of 127%.
In the case of CC(=O)c1ccc(-c2ccc(/C=C(\C#N)S(=O)(=O)c3ccccc3)o2)cc1, the host macrophage viability is reported as 126%.
Work on Cc1cccc(S(=O)(=O)N(C)Cc2nc3cc(C(=O)N4CCCC4)ccc3n2C)c1 yielded a host macrophage viability of 111%.
CCOC(=O)c1oc2ccccc2c1NC(=O)c1cc2ccccc2oc1=O showed a host macrophage viability of 120 ± 16%.
With COC(=O)c1ccc(NC(=O)C(C)N2C(=O)c3ccccc3S2(=O)=O)cc1 (stereo not given) the host macrophage viability was 110%.
With Cc1cc(C)nc(SCc2cc(=O)c(OC(=O)COc3ccccc3C)co2)n1 the host macrophage viability was 111%.
Work on CCCCN(C)S(=O)(=O)c1ccc(C(=O)Nc2nc3c(s2)CSc2ccccc2-3)cc1 yielded a host macrophage viability of 105%.
Molecule CCS(=O)(=O)c1cccc(C(=O)Nc2nc3c(F)cc(F)cc3s2)c1 has a host macrophage viability of 124%.
Work on O=C(COc1cccc2c1CCN(Cc1ccccc1)C2=O)N1CCCC1 yielded a host macrophage viability of 125%.
With Cc1csc(N2C(=N)SC(c3ccccc3)C2=O)n1 (stereo not given) the host macrophage viability was 138%.
c1ccc(-c2csc3ncnc(Sc4ccc5c(c4)OCCO5)c23)cc1 showed a host macrophage viability of 115%.
With O=C(CCC(=O)NC1CCCCC1)Nc1noc2ccccc12 the host macrophage viability was 102%.
Work on O=C(Oc1c(CN2CCOCC2)cc(Cl)c2cccnc12)c1ccco1 yielded a host macrophage viability of 147%.
For CC(C)Cn1c(=O)c2sccc2n2c(CCCC(=O)NCc3ccc4c(c3)OCO4)nnc12, the host macrophage viability was 96.5%.
For CC(C)[C@H](Cn1nc(-c2ccc(F)c(F)c2)ccc1=O)NC(=O)c1ccc(=O)[nH]n1, the host macrophage viability was 126%.
With O=[N+]([O-])c1ccc2[nH]c(SCc3cn4cccnc4n3)nc2c1 the host macrophage viability was 98.3%.
For CN1C(=O)/C(=N\NC(=O)CCCC(=O)N/N=C2/C(=O)N(C)c3ccccc32)c2ccccc21, the host macrophage viability was 119%.
For CSc1cccc(NC(=O)CN2N=NC3C(=O)N(c4ccc(F)c(F)c4)C(=O)C32)c1 (stereo not given), the host macrophage viability was 115%.
Work on CN(C)CCCNS(=O)(=O)c1ccc2c(c1)NC(=O)C(C)(C)O2 yielded a host macrophage viability of 92.4%.
With O=C(CSc1ncnc2c1oc1ccccc12)Nc1nccs1 the host macrophage viability was 103%.
For O=C(CSc1nnc2[nH]c(=O)c(-c3ccc(Cl)cc3)nn12)c1ccc([N+](=O)[O-])cc1, the host macrophage viability was 115%.
CC(=O)Nc1ccc(S(=O)(=O)NCCc2cn3ccc(C)cc3n2)cc1 was tested, and the host macrophage viability was 127%.
Work on CCC(=O)Nc1ccc(NC(=O)c2cc(OC)c(OC)c(OC)c2)cn1 yielded a host macrophage viability of 107%.
Work on COc1cccc(NC(=O)N2C3CCCC2CC(NC(C)=O)C3)c1 (stereo not given) yielded a host macrophage viability of 122%.
COc1ccc(N2C(=O)CC(NNC(=O)c3ccccc3)C2=O)cc1 (stereo not given) gave a host macrophage viability of 136%.
CCn1c(=O)c(-c2noc(CCC(=O)Nc3ccc(OC)cc3)n2)nn(-c2ccc(C)cc2)c1=O gave a host macrophage viability of 113%.
COc1ccc(Cc2cnc(NC(=O)/C=C/c3ccc([N+](=O)[O-])cc3)s2)cc1 showed a host macrophage viability of 119 ± 14%.
With Nc1c(C(=O)c2ccccc2)sc2nc3c(c(-c4ccco4)c12)CC/C3=C\c1ccco1 the host macrophage viability was 109%.
For CCOCCCn1c(SCC(=O)Nc2ccc(C)cc2C)nc2c(oc3ccccc32)c1=O, the host macrophage viability was 108%.
CCOC(=O)c1sc(NC(=O)c2cc3c(ccc4ccccc43)oc2=O)cc1C gave a host macrophage viability of 112 ± 1.8%.
Molecule C=CCOc1ccccc1NC(=O)c1nnn(-c2ccccc2)c1C has a host macrophage viability of 96.2%.
In the case of CCOc1ccccc1CNC(=O)c1sc(-n2cccc2)nc1C, the host macrophage viability is reported as 119%.
COc1cccc(C(=O)Nc2c(-n3cnnc3)nn(C)c2C)c1 was tested, and the host macrophage viability was 94.9%.
COc1cc(OC)cc(C(=O)Nc2cc3c4c(c2)CCC(=O)N4CCC3)c1 was tested, and the host macrophage viability was 114%.
Cc1ccc2[nH]c3nc(SCC(=O)Nc4ccc5c(c4)OCO5)nnc3c2c1 showed a host macrophage viability of 96.5%.
CCOC(=O)CSc1nc(C)nc2c1c(=O)n(C)c(=O)n2C showed a host macrophage viability of 107 ± 24%.
CC1CCc2nc(NC(=S)NC(=O)c3ccccc3)sc2C1 (stereo not given) gave a host macrophage viability of 116%.
O=C(NNC1=C/C(=N/S(=O)(=O)c2ccccc2)c2ccccc2C1=O)c1cccc([N+](=O)[O-])c1 showed a host macrophage viability of 90.3%.
For CC(=O)N1CCc2nc(NC(=O)c3cccs3)sc2C1, the host macrophage viability was 113%.
With Cc1c(C)n2c(SCC(=O)NC3CCCCC3)nnc2[nH]c1=O the host macrophage viability was 99.1%.
Molecule CC(=O)N1CCc2c(sc(NC(=O)c3cc(C)ccc3C)c2C#N)C1 has a host macrophage viability of 125%.
CSc1cccc(NC(=O)CSc2nc3c(oc4ccccc43)c(=O)n2Cc2ccco2)c1 was tested, and the host macrophage viability was 122%.
Work on Cc1ccc(Cn2c(SCc3cc(=O)n4cc(Cl)ccc4n3)nc3ccsc3c2=O)cc1 yielded a host macrophage viability of 136%.
With O=C(O)c1cccc(Cn2c(Cl)c(/C=N/NC(=O)c3ccncc3)sc2=O)c1 the host macrophage viability was 123%.
For CC(C)c1nc2ccccc2c2nnc(SCC(=O)Nc3ccc(F)cc3)n12, the host macrophage viability was 105%.
Cc1cccc(NC(=O)NC2CC(=O)N(c3ccc(F)cc3)C2)n1 (stereo not given) showed a host macrophage viability of 119%.
COCCCNC(=O)Cn1c(C)cc(=O)n2nc(-c3ccccc3Cl)nc12 gave a host macrophage viability of 119%.
O=C(Nc1ccccc1F)C(=O)c1c[nH]c2ccccc12 was tested, and the host macrophage viability was 114.2 ± 0.95%.
Molecule O=C(Nc1ccon1)C1CCN(S(=O)(=O)c2cccs2)CC1 has a host macrophage viability of 111%.
O=C(Nc1ccc2c(c1)CCC2)C1CCN(C(=O)NC2CCCCC2)CC1 showed a host macrophage viability of 120%.
Work on NS(=O)(=O)c1ccc(CNC(=O)c2cccn3c(-c4ccc(F)cc4)nnc23)cc1 yielded a host macrophage viability of 107%.
CCCc1cc(C(=O)N2CCCC2c2ccc(C)cc2)no1 (stereo not given) gave a host macrophage viability of 115%.
CCOC(=O)N1CCN(C(=O)CSCC(=O)/N=c2\sc3cc(OC)ccc3n2C)CC1 gave a host macrophage viability of 130%.
For Cc1ccc2c(Cl)c(C(=O)Nc3cc(-c4ccc(F)cc4)no3)sc2c1, the host macrophage viability was 112%.

Source: the supplement of paper PMC12578635
